Results deposited as PubChem BioAssay AID1159578 (Peter MacCallum Cancer Centre, 2015).
Aim: 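siRNA pools altering how lymphatic endothelial cells close a scratch wound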 (primary screen). System: human lymphatic endothelial cells. Reagent: siRNA pool against human genes, 40 nM. Timing: 48 h after transfection. Read-out: 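High-content imaging of dye-stained cells in a scratch assay measures filled wound area and nuclei per well; duplicate means given as ratio to mock and robust z-score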. Direction: migration robust z-score: higher = faster migration into the scratch; migration relative to mock: higher = more scratch area covered than mock; nuclei per well: higher = more cells in the well. Call rule: 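Migration changed when robust z exceeds 2 or falls below -2 and mean nuclei number is at least 3300; otherwise not called changed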. Meaning of the calls: active = migration changed; inactive = no migration change, or too few cells.
This is one part, drawn at random, of about 18,000 reagents. Over the whole deposit, about 1,030 (5.7%) were called active. 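Inactive calls also include pools with fewer than 3300 nuclei, whose migration was not assessed.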 The raw values are shown without normalisation. Unmarked entries are inactive. Reagent sequences are not shown.

target	PubChem SID	migration robust z-score	migration class with cell-count check	migration relative to mock	nuclei per well, duplicate mean
RFPL2 (GeneID 10739)	SID255355316	-0.54	migration z between -2 and 2; enough cells	0.7	4476
TRAF1 (GeneID 7185)	SID255352959	0.85	migration z between -2 and 2; enough cells	1.1	4740
TULP2 (GeneID 7288)	SID255353006	-0.36	migration z between -2 and 2; enough cells	0.74	4447
ID3 (GeneID 3399)	SID255350381	0.44	migration z between -2 and 2; enough cells	0.89	3724
DTNA (GeneID 1837)	SID255349387	0.28	migration z between -2 and 2; enough cells	0.96	3687
FCHSD1 (GeneID 89848)	SID255361747	1.54	migration z between -2 and 2; enough cells	1.29	5494
MAP1LC3C (GeneID 440738)	SID255365923	-0.03	migration z between -2 and 2; enough cells	0.88	6882
PLS3 (GeneID 5358)	SID255351642	1.6	migration z between -2 and 2; enough cells	1.3	5021
CGB2 (GeneID 114336)	SID255362222	-1.44	migration z between -2 and 2; enough cells	0.51	6098
GLIS3 (GeneID 169792)	SID255363888	1.36	migration z between -2 and 2; enough cells	1.24	4710
KLK12 (GeneID 43849)	SID255357315	0.16	migration z between -2 and 2; enough cells	0.84	5153
UBAP1 (GeneID 51271)	SID255357605	-1.12	migration z between -2 and 2; enough cells	0.6	4915
DAGLB (GeneID 221955)	SID255364328	0.54	migration z between -2 and 2; enough cells	0.91	5686
MT1E (GeneID 4493)	SID255351047	1.04	migration z between -2 and 2; enough cells	1.15	6176
PPM1D (GeneID 8493)	SID255353590	1.4	migration z between -2 and 2; enough cells	1.08	4510
FOSB (GeneID 2354)	SID255349743	-1.25	migration z between -2 and 2; enough cells	0.56	6034
CMTM2 (GeneID 146225)	SID255363274	0.03	migration z between -2 and 2; enough cells	0.89	6480
PDPR (GeneID 55066)	SID255358384	-1.42	migration z between -2 and 2; enough cells	0.53	3465
FAAP20 (GeneID 199990)	SID255364017	-0.12	migration z between -2 and 2; enough cells	0.85	5772
NUP50 (GeneID 10762)	SID255355332	0.09	migration z between -2 and 2; enough cells	0.9	5543
MIDEAS (GeneID 91748)	SID255361947	-0.05	migration z between -2 and 2; enough cells	0.88	6265
RAB41 (GeneID 347517)	SID255365225	0.38	migration z between -2 and 2; enough cells	0.98	6376
SPRR2B (GeneID 6701)	SID255352606	-1.2	migration z between -2 and 2; enough cells	0.57	6384
SYT1 (GeneID 6857)	SID255352717	0.62	migration z between -2 and 2; enough cells	1.04	4410
KIAA0586 (GeneID 9786)	SID255354555	-1.63	migration z between -2 and 2; enough cells	0.46	3410
MUSTN1 (GeneID 389125)	SID255365543	-0.82	migration z between -2 and 2; enough cells	0.67	5380
ABCD2 (GeneID 225)	SID255348268	0.62	migration z between -2 and 2; enough cells	0.92	6088
CDK1 (GeneID 983)	SID255348808	-0.54	under 3300 nuclei; migration not judged	0.7	2696
TMEM184A (GeneID 202915)	SID255364109	-1.5	migration z between -2 and 2; enough cells	0.5	5358
ASZ1 (GeneID 136991)	SID255363019	-0.83	migration z between -2 and 2; enough cells	0.67	5025
SRP72 (GeneID 6731)	SID255352631	0.1	migration z between -2 and 2; enough cells	0.82	5450
SEC16B (GeneID 89866)	SID255361752	1.02	migration z between -2 and 2; enough cells	1.15	5577
PDGFRB (GeneID 5159)	SID255351485	-2.44 (active)	migration z below -2; enough cells	0.34	4441
POGLUT1 (GeneID 56983)	SID255359211	1.98	migration z between -2 and 2; enough cells	1.4	5326
ISYNA1 (GeneID 51477)	SID255357738	-0.26	migration z between -2 and 2; enough cells	0.76	3735
NACC2 (GeneID 138151)	SID255363039	1.27	migration z between -2 and 2; enough cells	1.22	5100
AKTIP (GeneID 64400)	SID255359916	0.31	migration z between -2 and 2; enough cells	0.86	5406
CRYAA (GeneID 1409)	SID255349095	-0.2	migration z between -2 and 2; enough cells	0.84	4504
DKK2 (GeneID 27123)	SID255356931	0.53	migration z between -2 and 2; enough cells	1.02	4084
BRMS1 (GeneID 25855)	SID255356513	0.72	migration z between -2 and 2; enough cells	1.07	6470
NBPF14 (GeneID 25832)	SID255356495	2.5 (active)	migration z above 2; enough cells	1.54	7604
SYTL5 (GeneID 94122)	SID255362122	-0.66	migration z between -2 and 2; enough cells	0.72	4842
CTAG2 (GeneID 30848)	SID255357304	0.57	migration z between -2 and 2; enough cells	1.03	5378
CGB5 (GeneID 93659)	SID255362092	1.43	migration z between -2 and 2; enough cells	1.26	5874
MBP (GeneID 4155)	SID255350891	-1.92	migration z between -2 and 2; enough cells	0.38	4368
ABHD4 (GeneID 63874)	SID255359752	0.18	migration z between -2 and 2; enough cells	0.84	6290
MAGI3 (GeneID 260425)	SID255364593	-0.99	migration z between -2 and 2; enough cells	0.62	4612
MOB4 (GeneID 25843)	SID255356504	0.39	migration z between -2 and 2; enough cells	0.98	5157
MRPS21 (GeneID 54460)	SID255358018	-0.21	migration z between -2 and 2; enough cells	0.82	5493
RBM14 (GeneID 10432)	SID255355073	-0.65	migration z between -2 and 2; enough cells	0.72	7028
HCAR1 (GeneID 27198)	SID255356972	-0.24	migration z between -2 and 2; enough cells	0.76	5186
TMEM50A (GeneID 23585)	SID255356346	0.5	migration z between -2 and 2; enough cells	1.02	6924
OTOGL (GeneID 283310)	SID255364661	0.48	migration z between -2 and 2; enough cells	1.01	6115
TTC5 (GeneID 91875)	SID255361963	-0.56	migration z between -2 and 2; enough cells	0.74	4524
TCF7L2 (GeneID 6934)	SID255352780	-1.14	migration z between -2 and 2; enough cells	0.58	3484
CHI3L2 (GeneID 1117)	SID255348904	1.19	migration z between -2 and 2; enough cells	1.04	7156
TMBIM1 (GeneID 64114)	SID255359838	0.94	migration z between -2 and 2; enough cells	1.13	6141

Part of the list above, reformatted:
SYT1 (GeneID 6857) [SID255352717] — migration robust z-score = 0.62; migration class with cell-count check = migration z between -2 and 2; enough cells; migration relative to mock = 1.04; nuclei per well, duplicate mean = 4410
KIAA0586 (GeneID 9786) [SID255354555] — migration robust z-score = -1.63; migration class with cell-count check = migration z between -2 and 2; enough cells; migration relative to mock = 0.46; nuclei per well, duplicate mean = 3410
MUSTN1 (GeneID 389125) [SID255365543] — migration robust z-score = -0.82; migration class with cell-count check = migration z between -2 and 2; enough cells; migration relative to mock = 0.67; nuclei per well, duplicate mean = 5380
ABCD2 (GeneID 225) [SID255348268] — migration robust z-score = 0.62; migration class with cell-count check = migration z between -2 and 2; enough cells; migration relative to mock = 0.92; nuclei per well, duplicate mean = 6088
CDK1 (GeneID 983) [SID255348808] — migration robust z-score = -0.54; migration class with cell-count check = under 3300 nuclei; migration not judged; migration relative to mock = 0.7; nuclei per well, duplicate mean = 2696
TMEM184A (GeneID 202915) [SID255364109] — migration robust z-score = -1.5; migration class with cell-count check = migration z between -2 and 2; enough cells; migration relative to mock = 0.5; nuclei per well, duplicate mean = 5358
